PubChem BioAssay AID1224830 | NIAID – 2016
This is an unselected part of about 18,000 reagents. About 2,900 of all reagents (16%) were called active. 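Calls are made per well; low scores hint the gene aids the LPS response, high scores that it dampens it.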 Reagents against one gene are numbered here. Repeated entries: four replicate wells of each siRNA pool.

Purpose: 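Regulators of TLR4 signalling towards TNF-alpha in macrophage-like cells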 (primary screen)
Cells: human THP-1 monocytic leukaemia cells, TNF dual-luciferase reporter clone, PMA-differentiated to macrophage-like cells
Knock-down reagent: siRNA pool against human genes, 50 nM
Timing: LPS for 4 h, given about 3 days after siRNA transfection
Treatment: bacterial LPS (TLR4 ligand), 10 ng/ml
Measured: 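TNF firefly reporter luminescence divided by renilla, normalised to the plate median, then turned into a robust z-score for each replicate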
Reading the numbers: TNF reporter robust z-score: higher = stronger TNF reporter response to LPS
Call rule: 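a well is active when its z-score exceeds 2.8 or falls below -1.5; control wells carry no call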

no.	gene	reagent no.	TNF reporter robust z-score	Outcome
1	CT45A3	1	0.85	inactive
2	CT45A3	1	3.49	active
3	CT45A3	1	2.81	active
4	CT45A3	1	5.31	active
5	CT45A3	2	2.46	inactive
6	CT45A3	2	3.1	active
7	CT45A3	2	1.66	inactive
8	CT45A3	2	4.13	active
9	TRIM68	1	0.3	inactive
10	TRIM68	1	-0.78	inactive
11	TRIM68	1	-0.6	inactive
12	TRIM68	1	0.52	inactive
13	ASL	1	-1.09	inactive
14	ASL	1	-0.83	inactive
15	ASL	1	-0.76	inactive
16	ASL	1	-0.34	inactive
17	SENP3	1	0.61	inactive
18	SENP3	1	1.57	inactive
19	SENP3	1	0.01	inactive
20	SENP3	1	0.26	inactive
21	SOFU1	1	-1.11	inactive
22	SOFU1	1	-1.03	inactive
23	SOFU1	1	-1.55	active
24	SOFU1	1	-0.99	inactive
25	DAND5	1	1.89	inactive
26	DAND5	1	1.52	inactive
27	DAND5	1	0.29	inactive
28	DAND5	1	1.36	inactive
29	TRPV4	1	-0.48	inactive
30	TRPV4	1	0.44	inactive
31	TRPV4	1	0.42	inactive
32	TRPV4	1	2.03	inactive
33	GCNT2	1	2.11	inactive
34	GCNT2	1	-0.98	inactive
35	GCNT2	1	-1.5	inactive
36	GCNT2	1	-0.67	inactive
37	INSM2	1	0.29	inactive
38	INSM2	1	0.37	inactive
39	INSM2	1	-0.32	inactive
40	INSM2	1	0.71	inactive
41	H4C5	1	-1.01	inactive
42	H4C5	1	-0.92	inactive
43	H4C5	1	-0.61	inactive
44	H4C5	1	-0.64	inactive
45	SPIRE1	1	0.32	inactive
46	SPIRE1	1	3.78	active
47	SPIRE1	1	1.75	inactive
48	SPIRE1	1	1.04	inactive

Targets listed so far whose target name begins with H or h (4):
gene	reagent no.	TNF reporter robust z-score	Outcome
H4C5	1	-1.01	inactive
H4C5	1	-0.92	inactive
H4C5	1	-0.61	inactive
H4C5	1	-0.64	inactive

Further entries follow:
no.	gene	reagent no.	TNF reporter robust z-score	Outcome
49	ARAF	1	0.28	inactive
50	ARAF	1	1.82	inactive
51	ARAF	1	1.8	inactive
52	ARAF	1	1.19	inactive
53	TREH	1	-0.75	inactive
54	TREH	1	0.28	inactive
55	TREH	1	-1.89	active
56	TREH	1	1.29	inactive
57	SLCO4C1	1	0.13	inactive
58	SLCO4C1	1	-0.12	inactive
59	SLCO4C1	1	0.45	inactive
60	SLCO4C1	1	-0.09	inactive
61	NR2C2AP	1	2.02	inactive
62	NR2C2AP	1	3.07	active
63	NR2C2AP	1	1.32	inactive
64	NR2C2AP	1	1.09	inactive
65	LIMS2	1	0.24	inactive
66	LIMS2	1	0.58	inactive
67	LIMS2	1	-1.12	inactive
68	LIMS2	1	-0.83	inactive
69	LTO1	1	1.05	inactive
70	LTO1	1	0.26	inactive
71	LTO1	1	-0.3	inactive
72	LTO1	1	-0.07	inactive
73	OR51A2	1	-0.73	inactive
74	OR51A2	1	-0.92	inactive
75	OR51A2	1	-0.69	inactive
76	OR51A2	1	-1.09	inactive
77	DCAF12	1	3.8	active
78	DCAF12	1	0.91	inactive
79	DCAF12	1	1.34	inactive
80	DCAF12	1	1.24	inactive
81	ECM2	1	0.17	inactive
82	ECM2	1	0.47	inactive
83	ECM2	1	0.34	inactive
84	ECM2	1	-0.78	inactive
85	EI24	1	-0.91	inactive
86	EI24	1	-0.96	inactive
87	EI24	1	-1.15	inactive
88	EI24	1	-1.18	inactive
89	PARP1	1	-0.57	inactive
90	PARP1	1	-0.42	inactive
91	PARP1	1	-0.67	inactive
92	PARP1	1	-0.52	inactive
93	DDX25	1	-0.25	inactive
94	DDX25	1	0.47	inactive
95	DDX25	1	-0.04	inactive
96	DDX25	1	0.3	inactive
97	MED7	1	-0.74	inactive
98	MED7	1	-1.35	inactive
99	MED7	1	-0.52	inactive
100	MED7	1	-1.67	active
101	PBX1	1	0.18	inactive
102	PBX1	1	1.38	inactive
103	PBX1	1	2.68	inactive
104	PBX1	1	-0.94	inactive
105	GFI1B	1	1.16	inactive
106	GFI1B	1	2.6	inactive
107	GFI1B	1	1.32	inactive
108	GFI1B	1	1.01	inactive
109	GRIK2	1	0.8	inactive
110	GRIK2	1	0.41	inactive
111	GRIK2	1	-0.13	inactive
112	GRIK2	1	2.96	active
